Source: the supplement of paper PMC11732987, “Enantioselective OTUD7B fragment discovery through chemoproteomics screening and high-throughput optimisation” (Communications Chemistry, 2025)
The other results are listed elsewhere or left out. The data scatter; read single values as rough.

The chains behind the UniProt entries cited, without tags or fusion partners. Where a name states a change or a piece, a line headed by the entry shows the natural chain unless it says otherwise. Residues count along the entry.
UniProt Q70Z53: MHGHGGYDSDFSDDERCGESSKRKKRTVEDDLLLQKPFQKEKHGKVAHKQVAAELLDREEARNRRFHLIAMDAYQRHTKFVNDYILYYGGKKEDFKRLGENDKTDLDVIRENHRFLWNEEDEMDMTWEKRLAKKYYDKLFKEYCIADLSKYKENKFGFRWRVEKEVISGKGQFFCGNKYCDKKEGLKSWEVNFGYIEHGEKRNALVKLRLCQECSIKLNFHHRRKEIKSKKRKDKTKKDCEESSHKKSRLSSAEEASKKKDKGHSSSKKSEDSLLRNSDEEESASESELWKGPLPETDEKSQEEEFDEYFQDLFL
UniProt Q8NFG4, 321-341: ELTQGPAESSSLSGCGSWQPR
UniProt Q9BQS8, 732-751: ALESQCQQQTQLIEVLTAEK
UniProt Q9Y613: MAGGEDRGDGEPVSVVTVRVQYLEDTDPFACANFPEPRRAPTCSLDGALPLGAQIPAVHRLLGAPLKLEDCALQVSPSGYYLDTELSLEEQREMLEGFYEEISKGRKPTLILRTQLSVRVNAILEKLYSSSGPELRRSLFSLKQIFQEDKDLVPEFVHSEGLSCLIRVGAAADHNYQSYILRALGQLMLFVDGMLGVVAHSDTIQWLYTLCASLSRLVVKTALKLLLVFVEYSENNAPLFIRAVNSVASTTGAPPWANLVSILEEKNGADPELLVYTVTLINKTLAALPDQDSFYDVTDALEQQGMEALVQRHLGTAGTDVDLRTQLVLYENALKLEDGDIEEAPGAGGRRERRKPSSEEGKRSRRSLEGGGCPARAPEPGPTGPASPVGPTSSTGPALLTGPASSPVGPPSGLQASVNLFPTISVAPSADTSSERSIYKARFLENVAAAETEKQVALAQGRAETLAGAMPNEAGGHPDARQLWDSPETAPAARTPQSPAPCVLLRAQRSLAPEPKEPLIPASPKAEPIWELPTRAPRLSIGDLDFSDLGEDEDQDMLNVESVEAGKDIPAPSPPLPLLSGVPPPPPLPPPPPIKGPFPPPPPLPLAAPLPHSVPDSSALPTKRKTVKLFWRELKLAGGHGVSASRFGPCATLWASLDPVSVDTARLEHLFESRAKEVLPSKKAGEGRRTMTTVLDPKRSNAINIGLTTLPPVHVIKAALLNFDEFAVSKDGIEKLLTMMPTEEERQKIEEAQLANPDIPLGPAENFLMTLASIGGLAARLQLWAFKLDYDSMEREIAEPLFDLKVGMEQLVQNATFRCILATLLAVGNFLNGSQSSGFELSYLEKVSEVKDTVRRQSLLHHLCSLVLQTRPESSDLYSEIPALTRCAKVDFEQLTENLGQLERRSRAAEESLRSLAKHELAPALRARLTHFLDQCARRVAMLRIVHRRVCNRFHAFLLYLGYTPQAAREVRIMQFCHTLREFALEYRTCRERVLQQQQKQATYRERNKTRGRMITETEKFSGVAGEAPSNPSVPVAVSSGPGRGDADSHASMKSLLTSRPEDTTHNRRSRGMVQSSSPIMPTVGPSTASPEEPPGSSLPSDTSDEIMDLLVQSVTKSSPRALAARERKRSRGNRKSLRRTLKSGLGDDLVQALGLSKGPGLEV
UniProt Q9H2C0: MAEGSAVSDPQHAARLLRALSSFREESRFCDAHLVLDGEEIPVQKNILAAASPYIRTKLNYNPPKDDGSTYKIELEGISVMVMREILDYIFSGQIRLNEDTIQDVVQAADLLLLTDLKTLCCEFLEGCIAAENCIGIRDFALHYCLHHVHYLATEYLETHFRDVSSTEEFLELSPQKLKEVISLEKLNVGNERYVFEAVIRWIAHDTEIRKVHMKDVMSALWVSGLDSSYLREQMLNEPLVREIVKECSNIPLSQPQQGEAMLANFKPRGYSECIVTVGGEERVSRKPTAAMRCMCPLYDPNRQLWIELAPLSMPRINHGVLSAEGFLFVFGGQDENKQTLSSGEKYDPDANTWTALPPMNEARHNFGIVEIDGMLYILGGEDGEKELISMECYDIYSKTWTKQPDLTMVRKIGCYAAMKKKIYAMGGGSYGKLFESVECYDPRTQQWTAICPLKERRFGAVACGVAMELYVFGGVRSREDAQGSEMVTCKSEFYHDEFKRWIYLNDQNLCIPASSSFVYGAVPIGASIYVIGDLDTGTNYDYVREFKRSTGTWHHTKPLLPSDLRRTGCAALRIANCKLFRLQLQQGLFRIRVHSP
UniProt Q14254, 56-76: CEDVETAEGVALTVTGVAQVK
UniProt Q8TF40: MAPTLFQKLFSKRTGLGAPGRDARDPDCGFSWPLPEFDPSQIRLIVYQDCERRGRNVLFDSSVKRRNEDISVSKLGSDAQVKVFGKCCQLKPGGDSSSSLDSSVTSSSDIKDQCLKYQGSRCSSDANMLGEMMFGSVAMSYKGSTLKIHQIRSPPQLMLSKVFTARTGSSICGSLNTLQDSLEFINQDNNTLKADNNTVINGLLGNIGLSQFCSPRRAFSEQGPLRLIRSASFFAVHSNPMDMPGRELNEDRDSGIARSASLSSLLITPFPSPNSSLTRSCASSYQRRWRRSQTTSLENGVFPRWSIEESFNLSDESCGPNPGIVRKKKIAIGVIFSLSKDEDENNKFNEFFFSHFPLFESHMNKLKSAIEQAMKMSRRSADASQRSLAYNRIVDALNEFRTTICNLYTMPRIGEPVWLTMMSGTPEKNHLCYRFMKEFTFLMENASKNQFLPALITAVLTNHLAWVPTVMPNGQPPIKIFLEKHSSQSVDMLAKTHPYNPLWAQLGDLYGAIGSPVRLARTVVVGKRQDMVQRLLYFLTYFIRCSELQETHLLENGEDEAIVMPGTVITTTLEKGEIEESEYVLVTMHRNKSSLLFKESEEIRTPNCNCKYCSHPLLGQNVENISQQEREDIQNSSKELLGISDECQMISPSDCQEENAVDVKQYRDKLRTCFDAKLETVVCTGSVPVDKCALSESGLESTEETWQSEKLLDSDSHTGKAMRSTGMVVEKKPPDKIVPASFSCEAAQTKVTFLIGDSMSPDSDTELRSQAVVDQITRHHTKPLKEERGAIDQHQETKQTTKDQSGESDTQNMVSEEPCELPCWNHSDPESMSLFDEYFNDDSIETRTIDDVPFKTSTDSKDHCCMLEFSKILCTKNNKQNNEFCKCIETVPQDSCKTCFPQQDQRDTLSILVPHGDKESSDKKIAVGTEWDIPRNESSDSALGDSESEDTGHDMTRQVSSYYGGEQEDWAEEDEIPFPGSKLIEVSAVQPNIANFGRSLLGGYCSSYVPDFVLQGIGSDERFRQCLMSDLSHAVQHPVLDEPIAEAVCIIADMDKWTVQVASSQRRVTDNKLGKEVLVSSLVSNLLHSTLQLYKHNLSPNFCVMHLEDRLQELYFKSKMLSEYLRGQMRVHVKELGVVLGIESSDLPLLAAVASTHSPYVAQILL
UniProt O60353: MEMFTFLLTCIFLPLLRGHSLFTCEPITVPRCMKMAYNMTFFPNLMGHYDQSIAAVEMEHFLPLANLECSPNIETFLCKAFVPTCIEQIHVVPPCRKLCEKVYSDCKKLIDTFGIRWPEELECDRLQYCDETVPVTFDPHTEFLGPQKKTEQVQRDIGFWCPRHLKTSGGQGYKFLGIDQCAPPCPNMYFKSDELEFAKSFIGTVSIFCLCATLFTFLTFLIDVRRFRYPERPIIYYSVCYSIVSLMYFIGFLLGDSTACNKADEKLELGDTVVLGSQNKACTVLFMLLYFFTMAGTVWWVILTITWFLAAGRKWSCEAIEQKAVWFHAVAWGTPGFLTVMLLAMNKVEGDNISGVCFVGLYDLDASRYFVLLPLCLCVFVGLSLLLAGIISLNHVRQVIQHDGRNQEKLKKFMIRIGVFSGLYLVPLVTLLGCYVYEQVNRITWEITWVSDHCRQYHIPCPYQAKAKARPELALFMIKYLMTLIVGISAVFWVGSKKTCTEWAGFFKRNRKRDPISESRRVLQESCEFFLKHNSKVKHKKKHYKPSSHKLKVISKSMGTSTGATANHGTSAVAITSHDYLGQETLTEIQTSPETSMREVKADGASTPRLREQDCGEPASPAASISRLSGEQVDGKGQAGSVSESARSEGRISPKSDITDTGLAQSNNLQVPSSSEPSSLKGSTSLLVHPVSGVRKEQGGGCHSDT
UniProt O14772: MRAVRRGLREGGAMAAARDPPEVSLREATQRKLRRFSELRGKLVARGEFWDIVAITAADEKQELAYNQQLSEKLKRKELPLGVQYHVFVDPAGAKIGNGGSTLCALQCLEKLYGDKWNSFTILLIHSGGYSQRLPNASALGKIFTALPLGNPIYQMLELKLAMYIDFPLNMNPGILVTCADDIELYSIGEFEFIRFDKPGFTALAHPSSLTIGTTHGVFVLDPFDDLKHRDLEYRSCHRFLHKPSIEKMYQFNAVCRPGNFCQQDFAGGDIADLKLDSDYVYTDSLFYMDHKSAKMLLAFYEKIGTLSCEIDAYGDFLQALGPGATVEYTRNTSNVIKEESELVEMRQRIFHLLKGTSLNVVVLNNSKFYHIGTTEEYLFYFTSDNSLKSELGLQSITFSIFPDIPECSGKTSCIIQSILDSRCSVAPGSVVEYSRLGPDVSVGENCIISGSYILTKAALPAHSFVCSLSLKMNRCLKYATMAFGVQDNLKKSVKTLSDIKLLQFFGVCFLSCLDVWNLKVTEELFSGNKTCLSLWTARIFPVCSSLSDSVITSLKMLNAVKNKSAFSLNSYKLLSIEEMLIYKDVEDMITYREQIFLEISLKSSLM
UniProt Q8N0W3: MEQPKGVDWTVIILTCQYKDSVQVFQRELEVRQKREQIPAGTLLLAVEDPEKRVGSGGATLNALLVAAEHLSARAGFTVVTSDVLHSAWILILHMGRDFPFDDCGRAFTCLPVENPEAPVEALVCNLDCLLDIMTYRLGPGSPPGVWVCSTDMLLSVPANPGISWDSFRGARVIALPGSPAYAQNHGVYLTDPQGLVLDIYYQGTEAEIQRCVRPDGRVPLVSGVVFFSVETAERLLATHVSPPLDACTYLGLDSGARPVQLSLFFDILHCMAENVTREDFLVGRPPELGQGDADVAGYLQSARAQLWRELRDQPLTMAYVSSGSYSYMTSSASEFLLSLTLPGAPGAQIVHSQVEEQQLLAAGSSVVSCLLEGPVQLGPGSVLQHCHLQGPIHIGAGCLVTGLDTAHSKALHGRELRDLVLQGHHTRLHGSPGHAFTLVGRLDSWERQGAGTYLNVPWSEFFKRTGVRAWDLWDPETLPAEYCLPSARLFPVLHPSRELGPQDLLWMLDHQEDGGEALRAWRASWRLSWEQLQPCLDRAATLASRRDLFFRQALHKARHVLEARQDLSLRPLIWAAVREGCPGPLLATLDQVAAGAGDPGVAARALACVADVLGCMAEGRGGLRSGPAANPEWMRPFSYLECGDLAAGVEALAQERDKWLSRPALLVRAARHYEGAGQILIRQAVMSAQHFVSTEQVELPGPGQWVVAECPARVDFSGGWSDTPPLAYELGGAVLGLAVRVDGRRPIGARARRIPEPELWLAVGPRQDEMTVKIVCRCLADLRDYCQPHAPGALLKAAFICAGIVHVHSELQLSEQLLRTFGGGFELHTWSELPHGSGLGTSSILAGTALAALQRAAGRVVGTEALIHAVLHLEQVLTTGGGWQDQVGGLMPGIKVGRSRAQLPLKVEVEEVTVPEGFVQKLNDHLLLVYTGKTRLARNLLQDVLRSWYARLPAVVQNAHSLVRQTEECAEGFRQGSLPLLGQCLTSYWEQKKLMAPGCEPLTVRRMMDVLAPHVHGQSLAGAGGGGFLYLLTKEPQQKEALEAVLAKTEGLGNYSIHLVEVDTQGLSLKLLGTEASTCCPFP
UniProt Q53R41: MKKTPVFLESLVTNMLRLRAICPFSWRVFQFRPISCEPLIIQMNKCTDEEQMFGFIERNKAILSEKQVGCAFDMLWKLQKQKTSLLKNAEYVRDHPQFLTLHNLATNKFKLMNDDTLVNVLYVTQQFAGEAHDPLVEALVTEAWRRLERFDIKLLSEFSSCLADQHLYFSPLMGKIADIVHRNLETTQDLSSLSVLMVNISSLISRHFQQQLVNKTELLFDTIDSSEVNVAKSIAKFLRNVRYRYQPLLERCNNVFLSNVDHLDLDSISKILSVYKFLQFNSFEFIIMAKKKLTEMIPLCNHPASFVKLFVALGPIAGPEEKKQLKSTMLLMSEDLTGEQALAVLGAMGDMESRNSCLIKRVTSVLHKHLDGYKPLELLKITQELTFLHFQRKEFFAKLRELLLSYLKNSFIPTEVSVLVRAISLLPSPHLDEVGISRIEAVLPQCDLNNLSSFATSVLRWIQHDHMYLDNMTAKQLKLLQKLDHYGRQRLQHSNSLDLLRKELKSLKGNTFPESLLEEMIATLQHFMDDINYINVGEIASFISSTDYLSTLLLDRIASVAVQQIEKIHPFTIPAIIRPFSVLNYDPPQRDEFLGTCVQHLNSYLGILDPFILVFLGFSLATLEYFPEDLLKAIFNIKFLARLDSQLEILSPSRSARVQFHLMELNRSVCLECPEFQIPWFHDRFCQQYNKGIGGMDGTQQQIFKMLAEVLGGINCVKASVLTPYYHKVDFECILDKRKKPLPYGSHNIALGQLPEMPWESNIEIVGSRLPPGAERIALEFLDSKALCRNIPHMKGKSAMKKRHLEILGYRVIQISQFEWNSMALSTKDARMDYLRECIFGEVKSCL

Key:
[1] = compound: ClCC(=O)N[C@@H]1CCCc2ccccc12; test: log2 mean competition ratio of IA-DTB cysteine labelling (DMSO/compound) (log2 ratio); higher = stronger cysteine engagement by compound; conditions: treatment time: 4 h, cell line lysate: HEK293T
Experimental: (§1)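 IA-DTB competitive cysteine chemoproteomics in HEK293T RIPA lysate. Lysates were treated with compound 29 or 30 at 50 or 200 µM for 4 h, then IA-DTB (500 µM, 1 h), trypsin-digested, NeutrAvidin-enriched and analysed by diaPASEF. Competition ratio = intensity DMSO / intensity compound (n=4 treated, n=64 DMSO); binding: mean log2 CR ≥ 1 and p ≤ 0.05 plus QC filters. Target is the cysteine site.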

[2] = compound: ClCC(=O)N[C@H]1CCCc2ccccc12; test: as above; conditions: treatment time: 4 h, cell line lysate: HEK293T
Experimental: as §1

| Target | log2 mean competition ratio ([1]; 50 µM) | log2 mean competition ratio ([1]; 200 µM) | log2 mean competition ratio ([2]; 50 µM) | log2 mean competition ratio ([2]; 200 µM) |
| --- | --- | --- | --- | --- |
| FRA10AC1 C175 (UniProt Q70Z53) | 0.0128 | -0.135 | 0.265 | -0.155 |
| FBLIM1 C35 | -0.182 | 0.32 | 0.0538 | 0.125 |
| FLCN C335 (UniProt Q8NFG4) | -0.185 | 0.129 | 0.348 | 0.447 |
| FYCO1 C737 (UniProt Q9BQS8) | -0.206 | -0.107 | -0.212 | 0.064 |
| FHOD1 C936 (UniProt Q9Y613) | 0.139 | 0.526 | -0.579 | -0.244 |
| FSCN1 C397 (UniProt Q16658) | -0.094 | 0.0241 | -0.049 | -0.0182 |
| GAN C452 (UniProt Q9H2C0) | 0.0915 | -0.349 | -0.592 | 0.0701 |
| FLOT2 C56 (UniProt Q14254) | -0.251 | -0.217 | -0.0877 | -0.34 |
| G6PD C294 | -0.501 | 0.0176 | 0.0799 | -0.187 |
| FHOD3 C347 | -0.138 | 0.00448 | -0.288 | -0.0572 |
| FASN C223 | 0.102 | -0.14 | 0.142 | 0.0972 |
| FNIP1 C281 (UniProt Q8TF40) | 0.101 | 0.305 | 0.144 | 0.138 |
| FZD6 C161 (UniProt O60353) | -0.0445 | 0.0622 | -0.108 | 0.311 |
| FPGT C414 (UniProt O14772) | -0.0421 | -0.208 | -0.216 | -0.176 |
| FCSK C1000 (UniProt Q8N0W3) | 0.259 | 0.867 | -0.358 | 0.548 |
| FASTKD1 C686 (UniProt Q53R41) | 0.389 | 0.413 | 0.364 | 0.0974 |
| FOXC1 C550 | 0.0385 | 0.236 | 0.496 | 0.302 |

Record cards, as listed above. Values in the order: log2 mean competition ratio ([1]; 50 µM) | log2 mean competition ratio ([1]; 200 µM) | log2 mean competition ratio ([2]; 50 µM) | log2 mean competition ratio ([2]; 200 µM)
FHOD3 C347 is entered as -0.138 | 0.00448 | -0.288 | -0.0572
FPGT C414 (UniProt O14772) is entered as -0.0421 | -0.208 | -0.216 | -0.176
